Measurements reported in PubChem BioAssay AID493246 (Drosophila RNAi Screening Center, 2011).
The screen tested about 21,000 reagents; below is a random part of those that have a named target and a result. Over the whole deposit, 429 (2%) are marked active. 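Values are raw and not normalised between plates; calls rest on per-plate z-scores that were not deposited.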 Entries without a mark were called inactive. Reagents against one gene are numbered here. A plus sign joins genes that one reagent is predicted to hit. Not stated in the record: the amount of reagent, the time to read-out.

Test: 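Identify essential fly genes by loss of cell viability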 (primary screen)
Cell system: Drosophila Kc and S2R+ cells
Reagent: long dsRNA against Drosophila genes
Measurement: 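Raw, unnormalised count of remaining cells in each well; per-plate z-scores of cell number underlie the calls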
Reading the numbers: Kc cell number and S2R+ cell number: higher = more cells remaining
Rule for the call: 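Active when the per-plate z-score of cell number is 3 or more in the direction of fewer cells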

| gene | dsRNA no. | Kc cell number, rep 1 | Kc cell number, rep 2 | S2R+ cell number, rep 1 | S2R+ cell number, rep 2 |
| --- | --- | --- | --- | --- | --- |
| CG31705 | 1 | 1.00e6 | 1.13e6 | 7.71e5 | 8.88e5 |
| GV1 | 1 | 1.26e6 | 1.42e6 | 1.14e6 | 1.23e6 |
| CG12689 | 1 | 1.53e6 | 1.52e6 | 1.12e6 | 1.20e6 |
| CG14785 | 1 | 4.44e5 | – | 8.42e5 | – |
| Os-C | 1 | 1.40e6 | 1.39e6 | 1.29e6 | 1.38e6 |
| Hexo2 | 1 | 1.62e6 | 1.57e6 | 1.14e6 | 1.27e6 |
| hng2 | 1 | 1.40e6 | 1.48e6 | 1.29e6 | 1.36e6 |
| CG7675 | 1 | 1.59e6 | 1.66e6 | 1.29e6 | 1.37e6 |

A portion taken from the entries so far, as a working copy:
| gene | dsRNA no. | Kc cell number, rep 1 | Kc cell number, rep 2 | S2R+ cell number, rep 1 | S2R+ cell number, rep 2 |
| --- | --- | --- | --- | --- | --- |
| CG12689 | 1 | 1.53e6 | 1.52e6 | 1.12e6 | 1.20e6 |
| CG14785 | 1 | 4.44e5 | – | 8.42e5 | – |
| Os-C | 1 | 1.40e6 | 1.39e6 | 1.29e6 | 1.38e6 |

Further records follow.
| gene | dsRNA no. | Kc cell number, rep 1 | Kc cell number, rep 2 | S2R+ cell number, rep 1 | S2R+ cell number, rep 2 |
| --- | --- | --- | --- | --- | --- |
| Chmp1 | 1 | 1.52e6 | 1.61e6 | 1.30e6 | 1.27e6 |
| CG34260 + cmpy | 1 | 1.29e6 | 1.25e6 | 1.27e6 | 1.36e6 |
| Sf3b1 | 1 | 1.02e6 (active) | 1.04e6 | 4.86e5 | 6.22e5 |
| Jon99Fii | 1 | 1.46e6 | 1.48e6 | 9.38e5 | 1.04e6 |
| Or59a | 1 | 1.48e6 | 1.51e6 | 1.25e6 | 1.36e6 |
| CG4830 | 1 | 1.63e6 | 1.55e6 | 1.34e6 | 1.50e6 |
| MED7 | 1 | 1.62e6 | 1.65e6 | 1.17e6 | 1.28e6 |
| Mtmr6 | 1 | 1.64e6 | 1.74e6 | 1.17e6 | 1.33e6 |
| Wbp2 | 1 | 1.41e6 | 1.52e6 | 1.21e6 | 1.26e6 |
| Snp | 1 | 1.64e6 | 1.70e6 | 1.26e6 | 4.25e5 |
| Scp2 | 1 | 1.55e6 | 1.59e6 | 1.10e6 | 1.22e6 |
| Scp2 | 2 | 1.43e6 | 1.45e6 | 1.12e6 | 1.24e6 |
| CG30356 | 1 | 1.35e6 | 1.45e6 | 9.75e5 | 1.12e6 |
| papi | 1 | 1.01e6 | 1.28e6 | 4.72e5 | 5.27e5 |
| asrij | 1 | 1.50e6 | 1.57e6 | 1.29e6 | 1.43e6 |
| Cyp6a22 | 1 | 1.40e6 | 1.49e6 | 9.90e5 | 1.02e6 |
